Source: PubChem BioAssay AID1053208 (Peter MacCallum Cancer Centre, 2014)
Purpose: 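Synthetic lethal interactions between gene loss and doxorubicin in osteosarcoma cells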 (primary screen). Cell system: mouse osteosarcoma cells, early-passage culture from an engineered mouse model of fibroblastic bone tumour. Reagents: siRNA pool against mouse genes, 40 nM. Timing: about 120 h (48 h before drug, then 72 h with drug). Conditions: doxorubicin 100 nM for 72 h, roughly 30-40% inhibitory dose. Measured: 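Luminescent ATP signal taken as viability with or without 100 nM doxorubicin for 72 h; mean of two wells set against non-targeting siRNA and turned into robust z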. Reading the numbers: viability z-score with doxorubicin and doxorubicin viability vs non-targeting: higher = more viable cells under doxorubicin; viability z-score without drug: higher = more viable cells with knock-down alone; z-score of drug to no-drug ratio: higher = less drug sensitisation by knock-down. Hit rule: 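Called active if knock-down leaves viability unchanged without drug (z within -2 to 2) but lowers it with doxorubicin (z at or under -2)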.
Here is one part, drawn at random, of about 17,000 reagents. 788 of all reagents (4.7%) were called active. 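Calls rest on z-score classes alone; an extra cut-off of viability at most 70% of control was not applied to them.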 Entries without a mark were called inactive.

Target gene	combined z-score class	viability z-score with doxorubicin	viability z-score without drug	z-score of drug to no-drug ratio	doxorubicin viability vs non-targeting
Smc1b (GeneID 140557)	no change with or without drug	0.67	0	0.79	1
Slc7a14 (GeneID 241919)	no change with or without drug	-0.9	1.52	-1.69	0.86
Rpl35a (GeneID 57808)	low cell count with and without drug	-7.87	-8.26	-5.17	0.24
Drc10 (GeneID 75732)	no change with or without drug	-1.57	-0.17	-1.46	0.8
4930590J08Rik (GeneID 381798)	no change with or without drug	0.22	-0.84	1.01	0.96
Psma7 (GeneID 26444)	low cell count with and without drug	-5.4	-4.22	-3.6	0.46
Slc27a4 (GeneID 26569)	high cell count without drug only	1.24	2.19	-0.11	1.05
Or8k32 (GeneID 258402)	no change with or without drug	0.34	-0.51	0.79	0.97
Haus8 (GeneID 76478)	no change with or without drug	0.9	0.84	0.45	1.02
Cacng5 (GeneID 140723)	no change with or without drug	1.35	1.85	0.22	1.06
Fuca1 (GeneID 71665)	no change with or without drug	-1.01	-0.84	-0.45	0.85
Cdk1 (GeneID 12534)	no change with or without drug	-0.22	-0.51	0.22	0.92
Ager (GeneID 11596)	high cell count with doxorubicin only	2.59	0.34	2.59	1.17
4631423B10Rik (GeneID 109292)	low cell count with doxorubicin only (active)	-2.25	-1.52	-1.35	0.74
P2rx3 (GeneID 228139)	no change with or without drug	-0.22	-1.18	0.79	0.92
Hes3 (GeneID 15207)	no change with or without drug	0.79	1.85	-0.34	1.01
Vrk1 (GeneID 22367)	low cell count with doxorubicin only (active)	-2.47	0.67	-2.81	0.72
Veph1 (GeneID 72789)	no change with or without drug	-0.22	-1.18	0.79	0.92
Card10 (GeneID 105844)	no change with or without drug	-0.67	-0.51	-0.22	0.88
Enpp4 (GeneID 224794)	no change with or without drug	-0.79	0	-0.67	0.87

3 consecutive records already listed:
Target gene	combined z-score class	viability z-score with doxorubicin	viability z-score without drug	z-score of drug to no-drug ratio	doxorubicin viability vs non-targeting
4631423B10Rik (GeneID 109292)	low cell count with doxorubicin only (active)	-2.25	-1.52	-1.35	0.74
P2rx3 (GeneID 228139)	no change with or without drug	-0.22	-1.18	0.79	0.92
Hes3 (GeneID 15207)	no change with or without drug	0.79	1.85	-0.34	1.01
